The list does not hold the whole screen: it is rich in T/C values a quarter to a half above the control, in often repeated tests (any T/C) and in doses without a T/C. Other doses and runs of a compound stand elsewhere. T/C: endpoint of the treated group in % of that of the vehicle group. Some entries give survivors of the animals treated and no T/C: the source files T/C as zero there, which appears to mark a toxic dose or a test without result, not a measured value. Some doses without a T/C left all or most animals alive at the check, yet need not have been tolerated: the source hardly ever lists a survival T/C far under the control, and the zero likely stands for such cases as well. Survivors were counted at the toxicity check, usually on the fifth day, unless a day is given; later deaths do not show. Schedule codes are those of the source, read here as Q, the interval in days (D) or hours (H), X, the number of doses. Some doses were run more than once; their values stand side by side, smallest first. Some molecules as drawn cover several salts, stereoisomers or complexes of the source; a dose is that of the sample tested. For survival time, the PubChem record calls one and a half times the control and up active, and a quarter to a half above the control has no call in these data; cut-offs in other NCI protocols can differ. Some schedule codes hold Z or #, which are not explained here.
System: L1210 leukemia ip in BDF1 mice, survival T/C
Assay: NCI In Vivo Anticancer Drug Screen. Data for tumor model L1210 Leukemia (intraperitoneal) in B6D2F1 (BDF1) mice
Conditions: T/C endpoint: mean survival time, higher T/C = longer survival
[1] = dose: 50.0 mg/kg/injection, schedule: Q04DX003 (ip), vehicle: Klucel (hydroxypropylcellulose) (HPC)
[2] = dose: 100.0 mg/kg/injection, schedule: Q04DX003 (ip), vehicle: Klucel (hydroxypropylcellulose) (HPC)
[3] = dose: 100.0 mg/kg/injection, schedule: Q01DX001 (ip), vehicle: saline
[4] = dose: 200.0 mg/kg/injection, schedule: Q01DX001 (ip), vehicle: saline
[5] = dose: 400.0 mg/kg/injection, schedule: Q01DX001 (ip), vehicle: saline

With `Nc1nc(N)c2cc(NCc3ccccc3Cl)ccc2n1` the survivor count (dose: 18.0 mg/kg/injection, schedule: Q01DX009 (ip), vehicle: saline with Tween-80) was 3 of 6, the survivor count (dose: 25.0 mg/kg/injection, schedule: Q04DX003 (ip), vehicle: saline) was 5 of 6 and the survivor count (dose: 28.0 mg/kg/injection, schedule: Q01DX009 (ip), vehicle: saline with Tween-80) was 1 of 6. The survivor count (dose: 40.0 mg/kg/injection, schedule: Q01DX009 (ip), vehicle: saline with Tween-80) was 0 of 6, the survivor count (dose: 50.0 mg/kg/injection, schedule: Q01DX001 (ip), vehicle: acetone) was 0 of 6 and the survivor count (dose: 100.0 mg/kg/injection, schedule: Q01DX001 (ip), vehicle: acetone) was 0 of 6.

For `CN1CCN=C1c1ccc(NC(=O)c2cccc(C(=O)Nc3ccc(C4=NCCN4C)cc3)c2)cc1`, the T/C (dose: 15.0 mg/kg/injection, schedule: Q01DX Z (ip), vehicle: saline) was 126 and 135 % of control.

For `CC(C)[As](C)(=O)O`, the survivor count [1] was 1 of 6 and the survivor count [2] was 0 of 6.

For `CCOC(=O)CNc1ccc(F)c(Cl)c1`, the T/C (dose: 400.0 mg/kg/injection, schedule: Q04DX002 (ip), vehicle: Klucel (hydroxypropylcellulose) (HPC)) was 134 % of control.

For `O=c1[nH]c2ccc([As](O)O)cc2[nH]1`, the survivor count (dose: 100.0 mg/kg/injection, schedule: Q01DX009 (ip), vehicle: water) was 10 of 10, the survivor count (dose: 200.0 mg/kg/injection, schedule: Q01DX009 (ip), vehicle: water) was 8 of 10 and the survivor count (dose: 400.0 mg/kg/injection, schedule: Q01DX009 (ip), vehicle: water) was 2 of 10.

`CN1C(=O)C(C)(C)C(=O)c2ccccc21` was tested, and the survivor count (dose: 100.0 mg/kg/injection, schedule: Q04DX002 (ip), vehicle: other) was 3 of 3, the survivor count (dose: 200.0 mg/kg/injection, schedule: Q04DX002 (ip), vehicle: other) was 3 of 3 and the survivor count (dose: 400.0 mg/kg/injection, schedule: Q04DX002 (ip), vehicle: other) was 3 of 3.

In the case of `Cc1cccc[n+]1C`, the survivor count (dose: 400.0 mg/kg/injection, schedule: Q01DX001 (ip), vehicle: Klucel (hydroxypropylcellulose) (HPC)) is reported as 0 of 3 and the survivor count (dose: 400.0 mg/kg/injection, schedule: Q01DX001 (ip), vehicle: carboxymethylcellulose (CMC)) is reported as 0 of 4.

In the case of `NCCCCCCN=C(N)C(N)=NCCCCCCN`, the survivor count (dose: 12.5 mg/kg/injection, schedule: Q01DX009 (ip), vehicle: Klucel (hydroxypropylcellulose) (HPC)) is reported as 0 of 6 and 3 of 6, the T/C (dose: 12.5 mg/kg/injection, schedule: Q04DX002 (ip), vehicle: saline) is reported as 127 % of control and the survivor count (dose: 25.0 mg/kg/injection, schedule: Q01DX009 (ip), vehicle: Klucel (hydroxypropylcellulose) (HPC)) is reported as 0 of 6. For the same compound, the survivor count (dose: 25.0 mg/kg/injection, schedule: Q04DX002 (ip), vehicle: saline) was 0 of 3, the survivor count (dose: 50.0 mg/kg/injection, schedule: Q01DX009 (ip), vehicle: Klucel (hydroxypropylcellulose) (HPC)) was 0 of 6 and the survivor count (dose: 50.0 mg/kg/injection, schedule: Q04DX002 (ip), vehicle: saline) was 0 of 3. The survivor count [1] was 0 of 6, the survivor count (dose: 100.0 mg/kg/injection, schedule: Q04DX002 (ip), vehicle: saline) was 0 of 3 and the survivor count [2] was 0 of 6. For the same compound, the survivor count (dose: 200.0 mg/kg/injection, schedule: Q04DX002 (ip), vehicle: saline) was 0 of 3, the survivor count (dose: 200.0 mg/kg/injection, schedule: Q04DX003 (ip), vehicle: Klucel (hydroxypropylcellulose) (HPC)) was 0 of 6 and the survivor count (dose: 400.0 mg/kg/injection, schedule: Q04DX002 (ip), vehicle: saline) was 0 of 3. The survivor count (dose: 400.0 mg/kg/injection, schedule: Q04DX003 (ip), vehicle: Klucel (hydroxypropylcellulose) (HPC)) was 0 of 6.

For `C=C=C[P+](c1ccccc1)(c1ccccc1)c1ccccc1`, the survivor count (dose: 80.0 mg/kg/injection, schedule: Q01DX001 (ip), vehicle: saline) was 0 of 6, the survivor count [3] was 0 of 4 and the survivor count [4] was 0 of 4. The survivor count [5] was 0 of 4.

In the case of `Nc1nc2c(=O)[nH]c(=O)[nH]c2n1C1OC(CO)C(O)C1O` (centres undefined), the survivor count [5] is reported as 0 of 6.

For `CCN1c2ccccc2C(Cl)(c2ccc(N(C)C)cc2)c2ccccc21`, the survivor count (dose: 20.0 mg/kg/injection, schedule: Q03HX024 (ip), vehicle: saline) was 0 of 10, the survivor count (dose: 30.0 mg/kg/injection, schedule: Q03HX024 (ip), vehicle: saline) was 0 of 10 and the survivor count (dose: 45.0 mg/kg/injection, schedule: Q01DX009 (ip), vehicle: saline) was 8 of 10. For the same compound, the survivor count (dose: 45.0 mg/kg/injection, schedule: Q03HX024 (ip), vehicle: saline) was 0 of 10, the survivor count (dose: 50.0 mg/kg/injection, schedule: Q01DX001 (ip), vehicle: saline) was 0 of 6 and the survivor count (dose: 59.0 mg/kg/injection, schedule: Q01DX001 (ip), vehicle: saline) was 3 of 10. For the same compound, the survivor count (dose: 59.0 mg/kg/injection, schedule: Q04DX003 (ip), vehicle: saline) was 2 of 10, the survivor count (dose: 88.0 mg/kg/injection, schedule: Q01DX001 (ip), vehicle: saline) was 0 of 10 and the survivor count (dose: 88.0 mg/kg/injection, schedule: Q04DX003 (ip), vehicle: saline) was 0 of 10 and 1 of 10. For the same compound, the survivor count [3] was 0 of 6, the survivor count (dose: 100.0 mg/kg/injection, schedule: Q04DX003 (ip), vehicle: saline) was 0 of 6 and the survivor count (dose: 134.0 mg/kg/injection, schedule: Q01DX001 (ip), vehicle: saline) was 0 of 10. For the same compound, the survivor count (dose: 134.0 mg/kg/injection, schedule: Q04DX003 (ip), vehicle: saline) was 0 of 10, the survivor count [4] was 0 of 10 and 0 of 6 and the survivor count (dose: 200.0 mg/kg/injection, schedule: Q04DX003 (ip), vehicle: saline) was 0 of 10 and 0 of 6. For the same compound, the survivor count (dose: 300.0 mg/kg/injection, schedule: Q01DX001 (ip), vehicle: saline) was 0 of 10, the survivor count (dose: 300.0 mg/kg/injection, schedule: Q04DX003 (ip), vehicle: saline) was 0 of 10 and the survivor count [5] was 0 of 6. For the same compound, the survivor count (dose: 400.0 mg/kg/injection, schedule: Q04DX003 (ip), vehicle: saline) was 0 of 6, the survivor count (dose: 450.0 mg/kg/injection, schedule: Q01DX001 (ip), vehicle: saline) was 0 of 10 and the survivor count (dose: 450.0 mg/kg/injection, schedule: Q04DX003 (ip), vehicle: saline) was 0 of 10.

With `O=C(NCCCCCCCCCCNC(=O)Nc1ccc(C2=NCCCN2)cc1)Nc1ccc(C2=NCCCN2)cc1` the T/C (dose: 8.0 mg/kg/injection, schedule: Q01DX009 (ip), vehicle: other) was 130 % of control, the T/C (dose: 12.5 mg/kg/injection, schedule: Q01DX009 (ip), vehicle: other) was 127 % of control and the T/C (dose: 12.5 mg/kg/injection, schedule: Q01DX Z (ip), vehicle: carboxymethylcellulose (CMC)) was 146 % of control. The T/C (dose: 19.0 mg/kg/injection, schedule: Q01DX009 (ip), vehicle: other) was 144 % of control, the survivor count (dose: 29.0 mg/kg/injection, schedule: Q01DX009 (ip), vehicle: other) was 0 of 6 and the survivor count (dose: 75.0 mg/kg/injection, schedule: Q01DX001 (ip), vehicle: other) was 1 of 6. The survivor count (dose: 150.0 mg/kg/injection, schedule: Q01DX001 (ip), vehicle: other) was 1 of 6 and the survivor count (dose: 300.0 mg/kg/injection, schedule: Q01DX001 (ip), vehicle: other) was 0 of 6.

With `CC(O)c1cc(Cl)ccc1Cl` (centres undefined) the survivor count (dose: 200.0 mg/kg/injection, schedule: Q04DX003 (ip), vehicle: saline with Tween-80) was 0 of 6.

In the case of `C=CC1CN2CCC1CC2C(O)c1ccnc2ccccc12` (centres undefined), the survivor count (dose: 400.0 mg/kg/injection, schedule: Q01DX009 (ip), vehicle: gum acacia) is reported as 3 of 6.

In the case of `CCOC(=O)/C=C/C(=O)O`, the survivor count (dose: 150.0 mg/kg/injection, schedule: Q01DX001 (ip), vehicle: carboxymethylcellulose (CMC)) is reported as 3 of 6 and the survivor count (dose: 300.0 mg/kg/injection, schedule: Q01DX001 (ip), vehicle: carboxymethylcellulose (CMC)) is reported as 1 of 6.
